Laboratory results: patent US11597962B2 (priority 2017, dated 2023)

Legend:
[1] = general procedure: Fmoc solid-phase peptide synthesis; Wang resin (tryptophan preloaded 0.59 mmol/g; alanine preloaded 0.57 mmol/g); HCTU/NMM; conditions: whole synthesis, scale of the general procedure 0.1 mmol
[2] = general procedure: Fmoc solid-phase peptide synthesis; Wang resin; HCTU/NMM; conditions: whole synthesis, RP-HPLC, scale 0.1 mmol

Leucocin A (KYYGNGVHCTKSGCSVNWGEAFSAGVHRLANGGNGFW; immobilized; 37 amino acid Leucocin A)
isolated yield [1]: 60% | final HPLC purity [2]: >95%

negative peptide (NGVHATKSGASVNWGEAFSA; Control Leucocin A fragment)
isolated yield [1]: 75% | final HPLC purity [2]: >95%
